Record: PubChem BioAssay AID1224829 (NIAID, 2016)
The whole screen tested about 3,800 reagents; this is a part drawn at random. 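Calls cover raised and lowered translocation; gene median uses one vendor's three siRNAs; qiagen siRNAs acted more weakly than ambion siRNAs.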 Reagents against one gene are numbered here. No sequences are given here.

Purpose: 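Follow-up of TLR4-NF-kappaB regulators using six separate siRNAs for each gene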 (follow-up of hits)
Cell system: mouse RAW264.7 G9 macrophage reporter cells
Knock-down reagent: single siRNA against mouse genes, 100 nM
Time to read-out: 2 days of siRNA knock-down, then 40 min of LPS before fixing
Challenge: LPS (Salmonella minnesota R595) at 10 ng/ml
Detection: 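Imaging of GFP-p65 after 40 min of LPS; nuclear over perinuclear ring intensity ratio, scaled to plate median and non-targeting control wells, given as z-score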
Reading the numbers: p65 translocation z-score and gene median z-score, per vendor: higher = more nuclear NF-kappaB p65 after LPS
Hit rule: 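An siRNA is called active when the mean z-score of its two replicates is above 2 or below -2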
Calls: active = changed p65 translocation (either direction); inactive = no clear change

target	reagent	siRNA vendor or control pool	p65 translocation z-score, replicate mean	p65 translocation z-score, replicate 1	p65 translocation z-score, replicate 2	gene median z-score, per vendor	call
Gzmf	1	ambion single siRNA	-0.922	-1.65	-0.191	-1.94	inactive
Gzmf	2	ambion single siRNA	-7.39	-7.94	-6.84	-1.94	active
Gzmf	3	ambion single siRNA	-1.45	-0.672	-2.23	-1.94	inactive
Gzmf	4	qiagen single siRNA	-0.707	-1.9	0.485	-1.56	inactive
Gzmf	5	qiagen single siRNA	-1.22	-1.22		-1.56	inactive
Gzmf	6	qiagen single siRNA	-3.19	-3.19		-1.56	active
Or1e32	1	ambion single siRNA	0.539	0.974	0.105	-0.629	inactive
Or1e32	2	ambion single siRNA	-1.6	-0.629	-2.57	-0.629	inactive
Or1e32	3	ambion single siRNA	-2.11	-2.11		-0.629	active
Or1e32	4	qiagen single siRNA	1.96	1.83	2.09	1.96	inactive
Or1e32	5	qiagen single siRNA	1.03	-0.709	2.77	1.96	inactive
Or1e32	6	qiagen single siRNA	1.42	-1.55	4.39	1.96	inactive
Apobec2	1	ambion single siRNA	4.42	5.55	3.29	0.914	active
Apobec2	2	ambion single siRNA	0.914	1.14	0.69	0.914	inactive
Apobec2	3	ambion single siRNA	-3.02	-2.97	-3.07	0.914	active
Apobec2	4	qiagen single siRNA	-0.223	-1.04	0.59	0.305	inactive
Apobec2	5	qiagen single siRNA	0.556	0.542	0.57	0.305	inactive
Apobec2	6	qiagen single siRNA	-0.11	0.0684	-0.288	0.305	inactive
Rit2	1	ambion single siRNA	0.725	0.719	0.731	0.281	inactive
Rit2	2	ambion single siRNA	0.523	1.2	-0.157	0.281	inactive
Rit2	3	ambion single siRNA	-2.47	-3.85	-1.08	0.281	active
Rit2	4	qiagen single siRNA	1.56	2.44	0.672	-0.0942	inactive
Rit2	5	qiagen single siRNA	-0.521	-0.188	-0.854	-0.0942	inactive
Rit2	6	qiagen single siRNA	-0.593	-1.19	0	-0.0942	inactive
Sh2d1a	1	ambion single siRNA	0.735	1.36	0.105	-0.157	inactive
Sh2d1a	2	ambion single siRNA	-0.258	-0.521	0.00509	-0.157	inactive
Sh2d1a	3	ambion single siRNA	-0.494	-0.319	-0.668	-0.157	inactive
Sh2d1a	4	qiagen single siRNA	-0.294	-1.47	0.882	-1.33	inactive
Sh2d1a	5	qiagen single siRNA	0.037	1.26	-1.19	-1.33	inactive
Sh2d1a	6	qiagen single siRNA	-4.82	-3.32	-6.32	-1.33	active
C3ar1	1	ambion single siRNA	-0.169	0.33	-0.668	-0.794	inactive
C3ar1	2	ambion single siRNA	-2.44	-0.921	-3.95	-0.794	active
C3ar1	3	ambion single siRNA	-2.06	-0.515	-3.6	-0.794	active
C3ar1	4	qiagen single siRNA	-0.359	-0.348	-0.37	-0.359	inactive
C3ar1	5	qiagen single siRNA	3.3	2.89	3.7	-0.359	active
C3ar1	6	qiagen single siRNA	-1	-0.833	-1.17	-0.359	inactive

3 of these entries, set out differently:
| target | reagent | siRNA vendor or control pool | p65 translocation z-score, replicate mean | p65 translocation z-score, replicate 1 | p65 translocation z-score, replicate 2 | gene median z-score, per vendor | call |
| --- | --- | --- | --- | --- | --- | --- | --- |
| Rit2 | 1 | ambion single siRNA | 0.725 | 0.719 | 0.731 | 0.281 | inactive |
| Rit2 | 2 | ambion single siRNA | 0.523 | 1.2 | -0.157 | 0.281 | inactive |
| Rit2 | 3 | ambion single siRNA | -2.47 | -3.85 | -1.08 | 0.281 | active |
